From patent US7255988
No constants are given. Whether binding was seen depends on the method and setting. Some results given as binding are weak or reduced against the parent protein; the word gives no strength.

Target: T1, cathepsin G (Calbiochem) (UniProt P08311)
T1 sequence (looked up): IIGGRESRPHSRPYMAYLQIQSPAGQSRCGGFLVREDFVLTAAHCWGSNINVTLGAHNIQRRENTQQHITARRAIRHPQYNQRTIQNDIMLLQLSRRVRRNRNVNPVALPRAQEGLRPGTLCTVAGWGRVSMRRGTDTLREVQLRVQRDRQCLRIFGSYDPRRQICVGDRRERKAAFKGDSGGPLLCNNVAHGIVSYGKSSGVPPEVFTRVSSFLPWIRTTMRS
Experiment: plate assay: cathepsin G coated on microtiter plate captures active ACT; detected with anti-ACT antibody, absorbance at 490 nm

binding: binds
B1: alpha 1-antichymotrypsin (ACT), human (protein)
chain: HPNSPLDEENLTQENQDRGTHVDLGLASANVDFAFSLYKQLVLKAPDKNVIFSPLSISTALAFLSLGAHNTTLTEILKGLKFNLTETSEAEIHQSFQHLLRTLNQSSDELQLSMGNAMFVKEQLSLLDRFTEDAKRLYGSEAFATDFQDSAAAKKLINDYVKNGTRGKITDLIKDLDSQTMMVLVNYIFFKAKWEMPFDPQDTHQSRFYLSKKKWVMVPMMSLHHLTIPYFRDEELSCTVVELKYTGNASALFILPDQDKMEEVEAMLLPETLKRWRDSLEFREIGELYLPKFSISRDYNLNDILLQLGIEEAFTSKADLSGITGARNLAVSQVVHKAVLDVFEEGTEASAATAVKITLLSALVETRTIVRFNRPFLMIIVPTDTQNIFFMSKVTNPKQA
